# Laboratory results taken from PubChem BioAssay AID1508648 (National Center for Advancing Translational Sciences (NCATS), 2021).
# This list was built around the results that the source calls inconclusive (neither active nor inactive); the mix of calls is not that of the screen. A potency beside an inconclusive call is a rough fit, not a confirmed value. Activity calls are given as the source filed them. Calls follow the shape of the dose curve; as a rule, active = well fitted cell-killing curve with a large enough effect; inconclusive = small, poorly fitted or top-dose-only effect, or effect the other way; inactive = flat fitted curve, though single readings scatter.
# Experiment: Cell viability assay in S16 Pmp22-HiBiT cells - Confirmatory screen
# Settings: S16 Schwann Pmp22-HiBiT viability, CellTiter-Glo, 24 h; series mostly up to 27.9 µM; activity change, negative = viability loss: at the top concentration
# From the text: Assay Provider: Jim Inglese Ph.D. National Center for Advancing Translational Science, National Institutes of Health, Rockville, MD CMT is a heterogeneous group of neurological disorders that affect approximately 1 in 2,500 people. In particular, the most common form of CMT, CMT1A is genetically linked to the duplication of the PMP22 gene which leads to Schwann cell overexpression, thus manifesting itself as a typical case of dose-sensitive diseases. To identify small molecule compounds that can mediate the expression of PMP22 we developed a phenotypic assay screening strategy by utilizing genome editing techniques to construct Schwann cell lines containing novel reporter technology to monitor the transcriptional or translational regulation of PMP22. For high sensitivity we use a bioluminescent reporter system embedded in the 3' UTR of the PMP22 gene (S16(c9) Pmp22-F2sN) to identify compounds that inhibit gene expression. […] We can further discriminate the effect of all transcriptionally active molecules on PMP22 translation or stability with an assay that incorporates a short NLuc peptide (HiBiT) at the C-terminus of expressed PMP22 (S16(f8) PMP22-HiBiT) allowing alpha complementation and luminescence detection of membrane-associated PMP22 protein. These assays were screened against the NCATS Sytravon Library Collection. Miniaturization of these assays to 1536-well plate format for quantitative high throughput screening (qHTS) yielded rich data sets immediately from the qHTS assay (S16(c9) Pmp22-F2sN), when compared with data from a cell viability assay (Cell TiterGlo) to identify compounds that decreased the output signals through cellular toxicity to streamline the selection process of actives for subsequent characterization using the HiBiT assay (S16(f8) PMP22-HiBiT).
# Cell viability assay in S16 Pmp22-HiBiT cells PROTOCOL TABLE (format as described by Inglese J, Shamu CE and Guy RK. 2007) SEQUENCE No. (e.g., 1, 2, 3, etc.); PARAMETER (e.g., Cells, Incubation, Reagent, etc.); VALUE and DESCRIPTION. 1. Cells. Add 500-1,000 cells in 4 uL in growth media (DMEM High Glucose, No Phenol Red media + 10% heat-inactivated FBS + 1% Pen/Strep supplemented media) per well into Greiner 1536-well white/solid bottom high base, TC-treated plates. 2. Compounds. Library compounds and controls added at 23nL per well, transferred by Pin Tool. 3. Incubation. Incubate plates at 37C, 5% CO2, 95% RH for 24 h. 4. Reagent. Add 3uL CellTiter-Glo per well of Greiner 1536-well plates. 5. Incubation. Incubate plates at room temperature for 15 min., protect from light. 6. Detector. Luminescence measured using CCD-based camera (Viewlux). NOTES (numbers refer to Sequence numbers above; values are from representative experiments) 6. Luminescence Read: Clear filter; Exposure = 1 sec, Gain = High, Speed = Slow, Binning = 2X REFERENCES: 1. Inglese J, Shamu CE and Guy RK, Reporting data from high throughput screening of small molecule libraries, Nature Chemical Biology, 2007, 3(8): 438-441. doi.org/10.1038/nchembio0807-438 2. Yasgar A, Shinn P, Jadhav A, Auld DS, Michael S, Zheng W, Austin CP, Inglese J and Simeonov A, Compound Management for Quantitative High-Throughput Screening. J. Assoc. Lab. Auto., 2008, 13: 79-89. doi: 10.1016/j.jala.2007.12.004
SMILES,Potency,"activity change, negative = viability loss"
Cc1ccc(CNC(=O)c2ccc(Cn3c(=O)c4ccccc4n(CC(=O)Nc4c(C)cc(C)cc4C)c3=O)cc2)cc1,"inconclusive: 18.2 µM [cytotoxic, partial curve]",
Cc1cccc(CS(=O)(=O)c2ncc(Cl)c(C(=O)Nc3nc4ccc(F)cc4s3)n2)c1,active: 14.5 µM,
CCOCCCNC(=O)c1ccc(-n2c(-c3ccccc3)cc3c2CCC(C)C3)cc1 (stereo not given),,inactive: 3%
Cc1cccc(N2CCN(C(=O)C3CCCN(S(=O)(=O)c4ccc5c(c4)oc(=O)n5C)C3)CC2)c1C (stereo not given),"inconclusive: 2.88 µM [cytotoxic, partial curve]",
COC(=O)c1c(-c2ccc(Cl)cc2)noc1N1CCN(c2cccc(C(F)(F)F)c2)CC1,active: 10.2 µM,
O=C(NCCCN1CCN(c2ccc(F)cc2)CC1)c1cc2c(Cl)nc3ccccc3c2s1,"inconclusive: 11.5 µM [cytotoxic, partial curve, poor fit]",
CCC(=O)N1CCc2cc(S(=O)(=O)CCC(=O)Nc3ccc(Cl)c(C(F)(F)F)c3)ccc21,"inconclusive: 2.29 µM [cytotoxic, full curve, poor fit]",
CCC(=O)C1=C(c2cccc([N+](=O)[O-])c2)N(C(=O)CC)n2c(nnc2-c2ccccc2)S1,,inactive: 1.46%
COC(=O)CS(=O)(=O)c1nc2ccccc2nc1N1CCCCC1,"inconclusive: 1.29 µM [cytotoxic, partial curve, poor fit]",
COc1ccc(-c2cc(C(F)(F)F)nc(S(C)(=O)=O)n2)cc1,active: 18.2 µM,
CCc1ccc(NC(=O)Cn2c(=O)n(-c3ccc(OC)cc3)c(=O)c3ccc(C(=O)NCc4ccc(C)cc4)cc32)cc1,"inconclusive: 11.5 µM [cytotoxic, partial curve]",
COc1ccccc1Nc1nn2c(=O)c3ccc(C(=O)Nc4ccc(F)cc4)cc3nc2s1,active: 7.24 µM,
COc1ccc(OC)c(NC(=O)CSc2c3c(nc4ccccc24)CCCC3)c1,"inconclusive: 16.2 µM [cytotoxic, single point]",
O=C(Cn1c(-c2cccs2)cc2cc(F)ccc21)NCCCN1CCN(c2ccc(F)cc2)CC1,,inactive: -28%
COc1ccccc1Nc1c2c(nc3ccc(NC(=O)/C=C/c4cccc(OC)c4OC)cc13)CCCC2,active: 5.13 µM,
COC(=O)c1ccccc1NC(=O)c1nc(S(=O)(=O)Cc2cccc(C)c2)ncc1Cl,,inactive: -12.8%
CCC(C)NC(=O)C1CCN(C(=O)c2cc3sccc3n2Cc2ccc(Cl)cc2)CC1 (stereo not given),active: 11.5 µM,
Cc1cccc(-n2c(=O)c3c(c4cc(C)ccc4n3C)n(CC(=O)NCCC3=CCCCC3)c2=O)c1,,inactive: -5.38%
Cc1cc(NC(=O)C2CCCN(S(=O)(=O)c3cccc4nonc34)C2)ccc1Br (stereo not given),,inactive: -5.15%
CCOC(=O)c1cc2c(=O)n3ccccc3nc2n(Cc2ccco2)c1=NC(=O)c1cc(C)cc(C)c1,"inconclusive: 0.575 µM [cytotoxic, full curve]",

# Retrieved by structure from the list above:
SMILES,Potency,"activity change, negative = viability loss"
O=C(Cn1c(-c2cccs2)cc2cc(F)ccc21)NCCCN1CCN(c2ccc(F)cc2)CC1,,inactive: -28%
CCC(=O)C1=C(c2cccc([N+](=O)[O-])c2)N(C(=O)CC)n2c(nnc2-c2ccccc2)S1,,inactive: 1.46%

# Carrying on:

SMILES,Potency,"activity change, negative = viability loss"
Cc1ccc(NC(=O)Cn2c(=O)n(-c3ccc(C)cc3)c(=O)c3ccc(C(=O)NCc4ccccc4Cl)cc32)cc1,"inconclusive: 11.5 µM [cytotoxic, partial curve]",
COc1ccc(NC(=O)c2oc3ccccc3c2NC(=O)Cc2ccc(F)cc2)c(OC)c1,,inactive: -17.8%
Cc1ccc(C)c(N2CCN(CCCNC(=O)Cn3c(-c4cccs4)cc4ccccc43)CC2)c1,"inconclusive: 22.9 µM [cytotoxic, single point]",
Cc1ccccc1S(=O)(=O)Cc1ccc(C(=O)N2CCN(c3cccc(Cl)c3)CC2)o1,,inactive: -27.6%
COc1ccccc1CNC(=O)CSc1nnc(C)c2c(C)n(-c3ccccc3)nc12,,inactive: -13.1%
CCCCOc1ccc(CN2C(=O)C(=O)c3cc(Br)cc(C)c32)cc1OC,"inconclusive: 20.4 µM [cytotoxic, single point]",
CCCCCS(=O)(=O)c1oc(-c2cccs2)nc1S(=O)(=O)c1ccc(C)cc1,active: 18.2 µM,
CC(=O)N1CCc2c(sc(NC(=O)CSc3ccccc3)c2-c2nc3ccccc3s2)C1,"inconclusive: 20.4 µM [rising, single point]",
CCC1=Nc2cc(C(=O)NCCCOC)ccc2Sc2ccc(Br)cc21,"inconclusive: 0.724 µM [rising, full curve]",
O=S(=O)(NCC(c1ccco1)S(=O)(=O)c1cccs1)c1ccc(Cl)cc1 (stereo not given),,inactive: -23.4%
Cc1ccc(CNC(=O)c2nc(S(=O)(=O)Cc3ccc(C)cc3)ncc2Cl)cc1,"inconclusive: 20.4 µM [cytotoxic, single point]",
CCc1nnc(NC(=O)c2nc(S(C)(=O)=O)ncc2Cl)s1,"inconclusive: 22.9 µM [cytotoxic, single point]",
CCCN1CCN(CCCNC(=O)Cn2c(-c3cccs3)cc3ccccc32)CC1,,inactive: -7.46%
CCOc1ccc(NC(=O)CSc2oc(-c3ccc(F)cc3)nc2S(=O)(=O)c2ccc(C)cc2)cc1,"inconclusive: 16.2 µM [cytotoxic, partial curve]",
CCOc1cc(CNc2ccc(O)cc2)cc(Br)c1OCc1ccccc1,,inactive: -2.33%
Cc1ccc(CNC(=O)c2ccc(Nc3nc4ccccc4n4nnnc34)cc2)cc1,"inconclusive: 16.2 µM [cytotoxic, single point]",
CCc1ccc(C(=O)c2cn(CC(=O)Nc3ccc4c(c3)OCO4)c3ccc(CC)cc3c2=O)cc1,active: 14.5 µM,
CCCC1=Nc2cc(C(=O)NC3CCCCC3)ccc2Sc2ccc(C)cc21,"inconclusive: 1.02 µM [rising, full curve]",
O=C(Cn1c(-c2cccs2)cc2cc(F)ccc21)NCCCN1CCN(c2ccccc2F)CC1,,inactive: -14.6%
Cc1ccc(NC(=O)c2nc(S(=O)(=O)Cc3cccc(C)c3)ncc2Cl)cc1,"inconclusive: 20.4 µM [cytotoxic, partial curve, poor fit]",
